# In the supplement of paper PMC4604168 (melanoma cell lines):
# This is one part of the list. Many values rest on one well or one pass, so single values are uncertain.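 Imaging used 1,536-well plates; nuclei positive for cleaved PARP by antibody were divided by total DNA-stained nuclei to yield the apoptosis fraction. Doses for screening kept most cells viable, and cell lines differ markedly in resting and induced cleaved-PARP levels.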
# Key:
# Experiment in all cases: cleaved PARP positive nuclei fraction relative to DMSO control; melanoma cells; higher = more apoptosis
# Settings in all cases: library dose: low library concentration; 72 h
# 501Mel = system: 501Mel
# A101D = system: A101D
# A2058 = system: A2058
# A375 = system: A375
# C32 = system: C32
# CBRC008 = system: CBRC008 (line from a melanoma biopsy)
# CBRC013 = system: CBRC013 (line from a melanoma biopsy)
# CBRC014 = system: CBRC014 (line from a melanoma biopsy)
# CBRC016 = system: CBRC016 (line from a melanoma biopsy)
# CBRC017 = system: CBRC017 (line from a melanoma biopsy)
SMILES,cleaved PARP positive nuclei fraction (501Mel) [%],cleaved PARP positive nuclei fraction (A101D) [%],cleaved PARP positive nuclei fraction (A2058) [%],cleaved PARP positive nuclei fraction (A375) [%],cleaved PARP positive nuclei fraction (C32) [%],cleaved PARP positive nuclei fraction (CBRC008) [%],cleaved PARP positive nuclei fraction (CBRC013) [%],cleaved PARP positive nuclei fraction (CBRC014) [%],cleaved PARP positive nuclei fraction (CBRC016) [%],cleaved PARP positive nuclei fraction (CBRC017) [%]
"Cn1cc(C2=C(c3cn(C4CCN(Cc5ccccn5)CC4)c4ccccc34)C(=O)NC2=O)c2ccccc21 [Enzastaurin] + CO[C@@H]1[C@H](N(C)C(=O)c2ccccc2)C[C@H]2O[C@]1(C)n1c3ccccc3c3c4c(c5c6ccccc6n2c5c31)C(=O)NC4 [Midostaurin] (first compound 0.8 µM, partner dose 0.08 µM)",63.6,226,116,342,363,140,153,100,172,89.5
"C[As](C)SC[C@H](NC(=O)CC[C@H](N)C(=O)O)C(=O)NCC(=O)O [Darinaparsin] + Cn1cncc1[C@@](N)(c1ccc(Cl)cc1)c1ccc2c(c1)c(-c1cccc(Cl)c1)cc(=O)n2C [tipifarnib] (first compound 0.4 µM, partner dose 0.01 µM)",78,85.3,90.1,163,75.2,128,114,94.8,49.9,94.5
"C[C@]12O[C@H](C[C@]1(O)CO)n1c3ccccc3c3c4c(c5c6ccccc6n2c5c31)CNC4=O [Lestaurtinib] + Cc1cc(N2CCOCC2)cc2[nH]c(-c3c(NC[C@@H](O)c4cccc(Cl)c4)cc[nH]c3=O)nc12 [BMS536924] (first compound 0.004 µM, partner dose 0.2 µM)",183,36.1,90.7,280,135,739,111,89.9,45.7,75.2
"N.N.[Cl][Pt][Cl] [cisplatin] + CN(C)S(=O)(=O)c1ccc2c(c1)/C(=C/c1cc3c([nH]1)CCCC3)C(=O)N2 [SU6656] (first compound 1.6 µM, partner dose 0.4 µM)",80.5,121,81.7,70.6,95.2,407,97.2,146,121,121
"Cn1cc(C2=C(c3cn(C4CCN(Cc5ccccn5)CC4)c4ccccc34)C(=O)NC2=O)c2ccccc21 [Enzastaurin] + COc1cc(Nc2ncc(F)c(Nc3ccc4c(n3)NC(=O)C(C)(C)O4)n2)cc(OC)c1OC [Tamatinib] (first compound 0.8 µM, partner dose 0.4 µM)",324,133,141,191,75.6,143,53.3,91.7,93.2,105
"C[As](C)SC[C@H](NC(=O)CC[C@H](N)C(=O)O)C(=O)NCC(=O)O [Darinaparsin] + COc1cc(Nc2ncc(F)c(Nc3ccc4c(n3)NC(=O)C(C)(C)O4)n2)cc(OC)c1OC [Tamatinib] (first compound 0.4 µM, partner dose 0.4 µM)",308,116,114,98,138,117,117,90.1,77.1,130
"Cn1cc(C2=C(c3cn(C4CCN(Cc5ccccn5)CC4)c4ccccc34)C(=O)NC2=O)c2ccccc21 [Enzastaurin] + CC1(C)NC(=O)N(c2ccc([N+](=O)[O-])c(C(F)(F)F)c2)C1=O [nilutamide] (first compound 0.8 µM, partner dose 1 µM)",85.4,85.3,95.5,32.5,92,155,73.6,76.9,127,83.6
"Cn1cnc2c(F)c(Nc3ccc(Br)cc3Cl)c(C(=O)NOCCO)cc21 [selumetinib] + Cn1cc(C2=C(c3cn(C4CCN(Cc5ccccn5)CC4)c4ccccc34)C(=O)NC2=O)c2ccccc21 [Enzastaurin] (first compound 0.015 µM, partner dose 0.8 µM)",924,51.3,105,240,76,196,–,66.1,157,113
"Cn1cc(C2=C(c3cn(C4CCN(Cc5ccccn5)CC4)c4ccccc34)C(=O)NC2=O)c2ccccc21 [Enzastaurin] + O=C(CCCCCCC(=O)Nc1ccccc1)NO [vorinostat] (first compound 0.8 µM, partner dose 0.08 µM)",72.2,345,161,124,96.1,187,45.5,93.4,103,99.3
"Cn1cc(C2=C(c3cn(C4CCN(Cc5ccccn5)CC4)c4ccccc34)C(=O)NC2=O)c2ccccc21 [Enzastaurin] + C[C@@H]1CCN(C(=O)CC#N)C[C@@H]1N(C)c1ncnc2[nH]ccc12 [CP690550] (first compound 0.8 µM, partner dose 1 µM)",164,76.8,137,51.7,78,110,72.3,68.5,49.6,71.1
"C[As](C)SC[C@H](NC(=O)CC[C@H](N)C(=O)O)C(=O)NCC(=O)O [Darinaparsin] + Cc1ccc(NC(=O)c2cccc(N(C)C)c2)cc1NC(=O)c1ccc(O)cc1 [ZM336372] (first compound 0.4 µM, partner dose 2 µM)",171,42.6,113,109,83,82.2,84.2,78.7,–,77.9
